In PubChem BioAssay AID192 (DTP/NCI, 2004):
The list is a part of this screen's results and no random one: it gathers tests that were run many times, whatever their T/C, doses with no T/C, and many T/C values between a quarter and a half above the control. Further doses and runs are listed elsewhere. T/C: endpoint of the treated group in % of that of the vehicle group. Some doses have a count of surviving animals in place of a T/C: the source holds a T/C of zero for them, seemingly a mark for toxic or unscored doses. Some survivor counts are full or nearly so, which does not show that the dose was tolerated: survival well below the control is almost never listed, so the zero probably covers shortened survival too. Counts of survivors are from the toxicity check (mostly the fifth day) where no day follows; animals may have died later. Schedule codes are those of the source, taken here to give the interval after Q, in days (D) or hours (H), and the number of doses after X. Some structures stand for samples that the source files as different forms (salt, stereo form or complex); doses refer to the form tested. Signs of the kind (2×) stand for listed records that agree. Where survival is the endpoint, the PubChem record calls one and a half times the control and up active, and a quarter to a half above the control has no call in these data; cut-offs in other NCI protocols can differ.

Test system: BDF1 mice, B16 melanoma ip, median survival T/C
Test: NCI In Vivo Anticancer Drug Screen. Data for tumor model B16 Melanoma (intraperitoneal) in B6D2F1 (BDF1) mice
Settings: T/C endpoint: median survival time, higher T/C = longer survival
Procedure, shortened: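 Transplantable tumor model; survival or tumor size measured; reported as T/C, treated over vehicle control.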

[1] = dose: 100.0 mg/kg/injection, schedule: Q01DX009 (ip), vehicle: Klucel (hydroxypropylcellulose) (HPC)
[2] = dose: 100.0 mg/kg/injection, schedule: Q01DX009 (ip), vehicle: saline with Tween-80
[3] = dose: 200.0 mg/kg/injection, schedule: Q01DX009 (ip), vehicle: saline with Tween-80
[4] = dose: 200.0 mg/kg/injection, schedule: Q01DX009 (ip), vehicle: Klucel (hydroxypropylcellulose) (HPC)

**Q.** `COc1cc2c(cc1OC)C1CNC(=O)C1C(c1ccccc1)C2` (stereo unspecified) was tested. Which survivor count (dose: 30.0 mg/kg/injection, schedule: Q01DX009 (ip), vehicle: Klucel (hydroxypropylcellulose) (HPC)) did it give?
**A.** 10 of 10

**Q.** What about the survivor count (dose: 75.0 mg/kg/injection, schedule: Q01DX009 (ip), vehicle: Klucel (hydroxypropylcellulose) (HPC)) of the same molecule?
**A.** 10 of 10

**Q.** What about the survivor count (dose: 150.0 mg/kg/injection, schedule: Q01DX009 (ip), vehicle: Klucel (hydroxypropylcellulose) (HPC)) of the same molecule?
**A.** 10 of 10

**Q.** Which survivor count [1] does the source give for `CNc1ccc(/C=C2\C=Cc3ccccc32)cc1` here?
**A.** 10 of 10

**Q.** With `NS(=O)(=O)OCCCCCCCOS(N)(=O)=O` as the molecule, how does the survivor count [2] read?
**A.** 10 of 10

**Q.** And the survivor count [3]?
**A.** 10 of 10

**Q.** What about the survivor count (dose: 400.0 mg/kg/injection, schedule: Q01DX009 (ip), vehicle: saline with Tween-80) of the same molecule?
**A.** 9 of 10

**Q.** What does the source list for `O=C(Nc1ccccc1Cl)N(Cc1ccccc1)c1ccccc1`?
**A.** survivor count [1]: 10 of 10; survivor count [4]: 10 of 10; survivor count (dose: 400.0 mg/kg/injection, schedule: Q01DX009 (ip), vehicle: Klucel (hydroxypropylcellulose) (HPC)): 10 of 10

**Q.** `CN(C)CCCN1c2ccccc2Sc2cnccc21` was tested. Which survivor count (dose: 150.0 mg/kg/injection, schedule: Q01DX009 (ip), vehicle: saline) did it give?
**A.** 5 of 10

**Q.** And the survivor count (dose: 225.0 mg/kg/injection, schedule: Q01DX009 (ip), vehicle: saline)?
**A.** 0 of 10

**Q.** And the survivor count (dose: 335.0 mg/kg/injection, schedule: Q01DX009 (ip), vehicle: saline)?
**A.** 0 of 10

**Q.** What does the source list for `CCCCCC#CC(=O)OC`?
**A.** survivor count (dose: 50.0 mg/kg/injection, schedule: Q01DX009 (ip), vehicle: saline with Tween-80): 9 of 10; survivor count [2]: 10 of 10; survivor count [3]: 10 of 10

**Q.** `O=C(CCN1CCCCCCC1)c1cccc([N+](=O)[O-])c1` was tested. Which survivor count [4] did it give?
**A.** 3 of 10

**Q.** How did the T/C (dose: 25.0 mg/kg/injection, schedule: Q01DX009 (ip), vehicle: water) turn out when `CC(=O)Nc1cc(NC(C)=O)cc(N(CCCl)CCCl)c1` was run?
**A.** 139 % of control

**Q.** And the survivor count (dose: 50.0 mg/kg/injection, schedule: Q01DX009 (ip), vehicle: water)?
**A.** 10 of 10

**Q.** And the survivor count (dose: 100.0 mg/kg/injection, schedule: Q01DX009 (ip), vehicle: water)?
**A.** 6 of 10

**Q.** For `CCC[CH2][Sn-]([CH2]CCC)([CH2]CCC)[O]c1cc(Cl)c(Cl)cc1Cl`, which survivor count (dose: 2.5 mg/kg/injection, schedule: Q01DX009 (ip), vehicle: Klucel (hydroxypropylcellulose) (HPC)) is on record?
**A.** 8 of 10

**Q.** What about the survivor count (dose: 5.0 mg/kg/injection, schedule: Q01DX009 (ip), vehicle: Klucel (hydroxypropylcellulose) (HPC)) of the same molecule?
**A.** 9 of 10

**Q.** And the survivor count (dose: 10.0 mg/kg/injection, schedule: Q01DX009 (ip), vehicle: Klucel (hydroxypropylcellulose) (HPC))?
**A.** 6 of 10

**Q.** How did the T/C (dose: 1.25 mg/kg/injection, schedule: Q04DX003 (ip), vehicle: saline) turn out when `O=C(CC(O)(C(F)(F)F)C(F)(F)F)CC(O)(C(F)(F)F)C(F)(F)F` was run?
**A.** 125 % of control

**Q.** What about the survivor count (dose: 5.0 mg/kg/injection, schedule: Q04DX003 (ip), vehicle: saline) of the same molecule?
**A.** 10 of 10 (2×)

**Q.** With `O=C(NC(CSCc1ccccc1)C(=O)Oc1ccc([N+](=O)[O-])cc1)OCc1ccccc1` (stereo unspecified) as the molecule, how does the survivor count (dose: 50.0 mg/kg/injection, schedule: Q01DX009 (ip), vehicle: gum acacia) read?
**A.** 10 of 10
